The values below come from doi:10.1101/2025.05.08.652952.

The chains behind the UniProt entries cited, without tags or fusion partners. Residues count along the entry.
UniProt P33450, residues 4610-5147: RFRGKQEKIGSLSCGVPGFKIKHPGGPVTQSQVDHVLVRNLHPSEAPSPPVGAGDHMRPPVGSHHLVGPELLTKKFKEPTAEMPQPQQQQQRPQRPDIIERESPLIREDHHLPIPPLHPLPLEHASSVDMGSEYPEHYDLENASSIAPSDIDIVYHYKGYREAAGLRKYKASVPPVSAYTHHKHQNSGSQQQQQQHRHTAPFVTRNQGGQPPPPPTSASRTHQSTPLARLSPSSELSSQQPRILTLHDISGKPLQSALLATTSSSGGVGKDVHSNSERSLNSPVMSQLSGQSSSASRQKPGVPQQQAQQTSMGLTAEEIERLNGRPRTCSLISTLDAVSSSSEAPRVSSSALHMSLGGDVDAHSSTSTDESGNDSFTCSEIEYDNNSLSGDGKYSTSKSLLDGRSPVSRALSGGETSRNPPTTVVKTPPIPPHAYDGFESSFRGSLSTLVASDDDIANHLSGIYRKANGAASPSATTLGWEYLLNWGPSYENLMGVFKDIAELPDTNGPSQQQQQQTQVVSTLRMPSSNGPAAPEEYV

Results are given in words; binding and its absence hold for the method and conditions named. In cells and extracts the contact can be indirect. Some results given as binding are weak or reduced against the parent protein; the word gives no strength. Sequences can lack the tags named with a protein.

The target of the assay is Fat intracellular domain, 3xFLAG-tagged (pAc-ftICD-3xFLAG) (Drosophila melanogaster) (UniProt P33450). Put plainly: co-IP.

B1: Yorkie, HA-tagged (pAc-yki-HA) (protein, UniProt Q45VV3 1-395)
chain: MLTTMSASSNTNSLIEKEIDDEDMLSPIKSNNLVVRVNQDTDDNLQALFDSVLNPGDAKRPLQLPLRMRKLPNSFFTPPAPSHSRANSADSTYDAGSQSSINIGNKASIVQQPDGQSPIAAIPQLQIQPSPQHSRLAIHHSRARSSPASLQQNYNVRARSDAAAANNPNANPSSQQQPAGPTFPENSAQEFPSGAPASSAIDLDAMNTCMSQDIPMSMQTVHKKQRSYDVISPIQLNRQLGALPPGWEQAKTNDGQIYYLNHTTKSTQWEDPRIQYRQQQQILMAERIKQNDVLQTTKQTTTSTIANNLGPLPDGWEQAVTESGDLYFINHIDRTTSWNDPRMQSGLSVLDCPDNLVSSLQIEDNLCSNLFNDAQAIVNPPSSHKPDDLEWYKIN
For B1, the binding result is listed as “binds”.
